Here are results for one molecule from PMC3763551, “The tRNA recognition mechanism of the minimalist SPOUT methyltransferase, TrmL” (Nucleic Acids Research, 2013).

These are yes or no findings as the source states them, for the method shown.

The target of the assay is EcTrmL-Y142A (E. coli) (UniProt P0AGJ7). Kind of assay: SEC; analytical gel filtration, Superdex 75 (10/30), 20 mM Tris-HCl pH 7.5, 100 mM NaCl, 5 mM MgCl2, 5 mM beta-Me, 300 ul injected, 0.5 ml/min, against standard proteins; both purified. (Size exclusion chromatography separates by hydrodynamic size, large species first.)

B1: EcTrmL-Y142A (enzyme, UniProt P0AGJ7 1-157)
chain: MLNIVLYEPEIPPNTGNIIRLCANTGFRLHIIEPMGFAWDDKRLRRAGLDYHEFTAVTRHHDYRAFLEAENPQRLFALTTKGTPAHSAVSYQDGDYLMFGPETRGLPASILDALPAEQKIRIPMVPDSRSMNLSNAVSVVVAEAWRQLGYPGAVLRD
For the molecule B1, the binding result is “no binding”.
